# Assay results as given in patent publication EP2659887A1, “Use of A-ring aromatic acetyl minocycline and pharmaceutical preparations derived from same for treatment and prevention of inflammation, autoimmune disorders and rejection of transplants” (priority 2012, dated 2013).
# For at least one compound, name, drawing or mass did not settle the structure.
# Assays:
# humane T-Lymphozyten = assay: Cytokine production of PWM-stimulated human T lymphocytes (ELISA of culture supernatants); format: cell-based; settings: PWM 2 µg/ml, 48 h; tested concentrations
# Source text: Zytokine stellen Indikatoren für die Stärke einer Entzündungsreaktion dar und sind aktive Regulatoren der Differenzierung und Proliferation von T-Lymphozyten. Aus diesem Grund lassen sich aus den in einem in vitro-Testsystem gewonnenen Daten zur Produktion/Freisetzung von Zytokinen detailliertere Aussagen über die immunmodulierenden/immunsuppressiven Eigenschaften von Testsubstanzen herleiten.
# Anschließend erfolgte die Messung der Konzentrationen von Interferon-y (IFN-y), Interleukin-2 (IL-2) und Interleukin-17 (IL-17) in den Zellkulturüberständen mittels spezifischer ELISA (R&D Systems).
# [1] = test system: Experimentelle Autoimmune Enzephalomyelitis (EAE); assay: Experimental autoimmune encephalomyelitis (EAE) mouse model of multiple sclerosis, therapeutic treatment, EAE score; format: in vivo, SJL/J-Maus; settings: intraperitoneal, 100 µg/Tag, Tag 12 bis Tag 20, therapeutic
smiles,measurement,setting,value
CN(C)c1ccc(O)c2c1C[C@H]1C[C@H]3[C@H](N(C)C)C(O)=C(C(N)=O)C(=O)[C@@]3(O)C(O)=C1C2=O [Minocyclin],Einfluss auf die Produktion und Sekretion von IFN-γ,humane T-Lymphozyten,keinen signifikanten Einfluss
same,Einfluss auf die Produktion und Sekretion von IL-2,humane T-Lymphozyten,keinen signifikanten Einfluss
same,Einfluss auf die Produktion und Sekretion von IL-17,humane T-Lymphozyten,keinen signifikanten Einfluss
same,Effekt auf die akute Phase der EAE (EAE-Score),[1],signifikanten therapeutischen Effekt
